{"source": "PubChem BioAssay AID624291", "about": "(National Center for Advancing Translational Sciences (NCATS), 2012)", "note": "Screen size: about 350,000 compounds; about 220 (0.063%) were called active. Inconclusive means that the source gave no clear call. Such entries were picked first, then a sample of the others. The call rests on the fitted dose curve; in most records, active means well fitted activation curve with a large enough effect; inconclusive means small, poorly fitted or top-dose-only effect; inactive means no such curve, though single readings can be large or run the other way. Where the call is inconclusive, the potency comes from a doubtful curve fit. Potency means the concentration at half of the fitted maximal effect."}
{"assay": "qHTS for Activators of Integrin-Mediated Alleviation for Muscular Dystrophy; further: nearly all actives have a fitted effect of over 60% in size;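 on activation: 100% = response of the positive control SU9516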", "conditions": "alpha7betagal myoblasts, beta-gal FDG fluorescence, 48 h; activation: at 38.3 µM (top of the series)", "procedure,_shortened": "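Alpha7betagal+/- myoblasts (passage 13) were plated 16-24 hr, then exposed to compounds (1:260 dilution of DMSO stock) for 48 hours at 37C. After MPER lysis, β-galactosidase reporter activity was read as FDG fluorescence (ex 480/em 540) after 30 minutes.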"}
{"smiles": "CCN(CCO)Cc1cc(=O)oc2cc3c(cc12)CCC3", "activation": "inactive: -1.42%"}
{"smiles": "CC(=O)NCCCNS(=O)(=O)c1ccc(C)cc1", "Potency": "inconclusive: 14.1 µM [activator, single point]"}
{"smiles": "Cc1ccccc1OCC(=O)OC1CCN(C)CC1", "activation": "inactive: 22.2%"}
{"smiles": "c1ccc(C2c3c(ccc4ccccc34)Oc3ncn4nc(-c5ccco5)nc4c32)cc1", "note": "(configuration not stated)", "Potency": "inconclusive: 2.82 µM [activator, single point]"}
{"smiles": "CCC(=O)Nc1c(-c2ccc(OC)cc2)c(=O)c2ccccc2n1C", "activation": "inactive: -21.5%"}
{"smiles": "CCCOc1ccc(-c2c(C(=O)N/N=C/c3cccs3)nnn2-c2nonc2N)cc1", "activation": "inactive: -3.05%"}
{"smiles": "CCOC(=O)C1=C(C)Nc2sc(C(=O)c3ccc(OC)cc3)c(N)c2C1c1ccc(C(=O)OC)cc1", "note": "(configuration not stated)", "activation": "inactive: 4.64%"}
{"smiles": "CCN(CC)C1CCN(C(=O)CCc2nnc(CCCCc3ccccc3)o2)C1", "note": "(configuration not stated)", "activation": "inactive: 9.45%"}
{"smiles": "CNC(=O)Cn1c(C)cc(=O)c2cccc(C)c21", "Potency": "inconclusive: 28.2 µM [activator, single point]"}
{"smiles": "CCCc1cc(=O)[nH]c(SCC(=O)Nc2cc(S(=O)(=O)N3CCCCC3)ccc2Cl)n1", "activation": "inactive: -16.7%"}
{"smiles": "CC(C)CC(NC(=O)C1CCCCC1)C(=O)NC(C)c1ccccc1", "note": "(configuration not stated)", "Potency": "inconclusive: 0.501 µM [activator, full curve, poor fit]"}
{"smiles": "Cc1cc(C(C)(C)C)cc(C)c1COC(=O)CN1C(=O)NC2(CCCC2)C1=O", "activation": "inactive: -36%"}
{"smiles": "O=C1/C(=C/c2ccc(N3CCOCC3)o2)SC(=Nc2ccccc2)N1CCc1c[nH]c2ccccc12", "activation": "inactive: -62.6%"}
{"smiles": "Cc1nc2cc(-c3ccccc3)sc2c(=O)n1N", "Potency": "inconclusive: 2.82 µM [activator, single point]"}
{"smiles": "Cc1[nH]c2ccccc2c1CCN(Cc1cccnc1)C(=S)NC(C)(C)C", "activation": "inactive: -22.9%"}
{"smiles": "COc1cc2c(cc1OC)CN(C(=O)C1CCCN(C(=O)c3ccc(Cl)cc3)C1)CC2", "note": "(configuration not stated)", "Potency": "inconclusive: 0.316 µM [activator, full curve, poor fit]"}
{"smiles": "Cc1onc(-c2ccccc2)c1C(=O)Nc1ccc(S(=O)(=O)N2CCOCC2)cc1", "Potency": "inconclusive: 2.51 µM [activator, single point]"}
{"smiles": "CC(C(=O)Nc1cccc([N+](=O)[O-])c1)[n+]1ccccc1", "note": "(configuration not stated)", "Potency": "inconclusive: 28.2 µM [activator, single point]"}
{"smiles": "C=CCN(C(=O)c1csnn1)C(C(=O)NC1CCCC1)c1ccc(F)cc1", "note": "(configuration not stated)", "Potency": "inconclusive: 11.2 µM [activator, single point]"}
{"smiles": "O=C(NC(=S)Nc1ncc(Br)cc1Br)c1cncc(Br)c1", "Potency": "inconclusive: 28.2 µM [activator, single point]"}
{"smiles": "C#CC1(NC(=O)NS(=O)(=O)c2ccc(C)cc2)CCCCC1", "Potency": "inconclusive: 10 µM [activator, partial curve, poor fit]"}
{"smiles": "CCN1CCN(C(=O)Cn2ncc3c2-c2ccccc2OC3)CC1", "activation": "inactive: -0.238%"}
{"smiles": "Cc1ccc(NC(=O)CSc2ncc3ccccn23)cc1C", "activation": "inactive: 18.6%"}
{"smiles": "COC(=O)Nc1ccc(S(=O)(=O)N2CCC(C(=O)N(C)C3CCCCC3)CC2)cc1", "activation": "inactive: 0.511%"}
{"smiles": "Cc1ccc2c(c1)c(-c1csc(N)n1)c(C)n2C", "Potency": "inconclusive: 11.2 µM [activator, single point]"}
{"smiles": "Cc1ccc(Cl)cc1NC(=S)N/N=C/c1cccc2ccccc12", "activation": "inactive: 0.299%"}
{"smiles": "COc1ccc(NC(=S)Nc2cccc(Cl)c2Cl)cc1OC", "activation": "inactive: -14.3%"}
{"smiles": "Cn1cnnc1SCC(=O)Nc1ccc(N2CCCCC2)cc1", "Potency": "inconclusive: 28.2 µM [activator, single point]"}
{"smiles": "CC1Cc2ccccc2N1C(=O)CSc1ncc(-c2ccc(F)cc2)n1C", "note": "(configuration not stated)", "Potency": "inconclusive: 5.01 µM [activator, single point]"}
{"smiles": "Cc1cccc(C)c1NC(=O)C1CCN(C(=O)c2cccs2)CC1", "Potency": "inconclusive: 1.58 µM [activator, partial curve, poor fit]"}
{"smiles": "Cc1cc(C)n(S(=O)(=O)c2ccc(Cl)c(Cl)c2Cl)n1", "Potency": "inconclusive: 11.2 µM [activator, single point]"}
{"smiles": "CC(N=C1NS(=O)(=O)c2ccccc21)C(=O)NCCCc1ccccc1", "note": "(configuration not stated)", "activation": "inactive: -8.84%"}
{"smiles": "O=C(NC(=S)Nc1ccccc1Br)C1CCC1", "activation": "inactive: 0%"}
{"smiles": "COc1ccc(Cl)cc1C(=O)N/N=C/c1ccc(N2CCOCC2)cc1", "Potency": "inconclusive: 12.6 µM [activator, single point]"}
{"smiles": "COc1ccc(-c2cc3nc(C)cc(N4CCN(C(=O)c5cccnc5)CC4)n3n2)cc1", "Potency": "inconclusive: 28.2 µM [activator, single point]"}
{"smiles": "CC(=O)Nc1ccc(S(=O)(=O)N(C)CC(=O)OCC(=O)N2CC(C)OC(C)C2)cc1", "note": "(configuration not stated)", "Potency": "inconclusive: 28.2 µM [activator, single point]"}
{"smiles": "Cc1cc(NC(=O)CSCC(=O)OCC(=O)Nc2cc(C)c(C)cc2[N+](=O)[O-])no1", "activation": "inactive: 0%"}
{"smiles": "Cc1cc(F)ccc1S(=O)(=O)Nc1ccc(C(=O)N2CCCCCC2)cc1", "Potency": "inconclusive: 3.16 µM [activator, full curve, poor fit]"}
{"smiles": "CCCc1ccc(Oc2cn[nH]c2-c2ccc(O)cc2O)cc1", "Potency": "inconclusive: 15.8 µM [activator, single point]"}
{"smiles": "C/C(Cc1ccccc1)=N\\NC(=O)CNC(=O)Cc1ccccc1", "Potency": "inconclusive: 1.58 µM [activator, partial curve, poor fit]"}
{"smiles": "CCc1ccc(NC(=O)C(=O)NCC2CCCO2)cc1", "note": "(configuration not stated)", "activation": "inactive: 8.93%"}
{"smiles": "COCCC(=O)N1CCC(Oc2ccc(C(=O)NCCSC)cc2)CC1", "Potency": "inconclusive: 0.501 µM [activator, full curve, poor fit]"}
{"smiles": "Cc1cccc(C)c1NC(=O)COC(=O)COc1ccc2c(C)cc(=O)oc2c1", "Potency": "inconclusive: 22.4 µM [activator, single point]"}
{"smiles": "CC(C)(C)c1ccc(C(=O)OCC(=O)Nc2sc3c(c2C#N)CCC3)cc1", "Potency": "active: 5.01 µM"}
{"smiles": "COc1cccc(CN2CCNC(=O)C2CC(=O)N(C)C2CCOCC2)c1", "note": "(configuration not stated)", "Potency": "inconclusive: 14.1 µM [activator, single point]"}
{"smiles": "O=C(CCOc1ccccc1)Nc1ccccc1F", "Potency": "inconclusive: 7.94 µM [activator, partial curve, poor fit]"}
{"smiles": "COc1ccc(C2=[N+]([O-])C(C)(C)N(O)C2C)cc1", "note": "(configuration not stated)", "Potency": "inconclusive: 25.1 µM [activator, partial curve, poor fit]"}
{"smiles": "COC(=O)c1sccc1NC(=O)CC1C(=O)NCCN1C(=O)c1ccccc1", "note": "(configuration not stated)", "Potency": "inconclusive: 2.82 µM [activator, single point]"}
{"smiles": "CC(=O)NNC(=O)c1nc(-c2ccccc2)c(C)o1", "Potency": "inconclusive: 5.01 µM [activator, single point]"}
{"smiles": "O=C(Nc1ccccc1C(=O)Nc1nnc(C(F)(F)F)s1)c1ccccc1Cl", "activation": "inactive: -82.4%"}
{"smiles": "COc1ccc(CNC(=O)CC(NC(N)=O)c2ccccc2Cl)cc1OC", "note": "(configuration not stated)", "activation": "inactive: -17.4%"}
{"smiles": "Cc1ccc(S(=O)(=O)N2CCC(C(=O)N[C@@H](C)C(=O)Nc3ccc4c(c3)OCO4)CC2)cc1", "Potency": "inconclusive: 20 µM [activator, partial curve, poor fit]"}
{"smiles": "O=C(NCC1CCCCC1)c1cccc(S(=O)(=O)N2CCCC2)c1", "Potency": "inconclusive: 28.2 µM [activator, single point]"}
{"smiles": "CC(C)OC(=O)CSc1nc(N)c(C#N)c(-c2ccco2)c1C#N", "activation": "inactive: -8.84%"}
{"smiles": "Cc1cc(C)c2c(=O)[nH]cnc2n1", "Potency": "inconclusive: 2.51 µM [activator, partial curve, poor fit]"}
{"smiles": "CCCNC(=O)[C@H]1N2C(=O)c3c(ccc(OC)c3OC)C2SC1(C)C", "note": "(some centres not stated)", "Potency": "inconclusive: 2.82 µM [activator, single point]"}
{"smiles": "COc1ccccc1-n1c(-c2cccnc2)n[nH]c1=S", "Potency": "inconclusive: 2 µM [activator, partial curve, poor fit]"}
{"smiles": "O=c1oc2ccccc2cc1-c1ccc(O)cc1", "Potency": "inconclusive: 1.78 µM [activator, partial curve, poor fit]"}
{"smiles": "CCCn1c(C(CO)Nc2nc(-c3cccc(Br)c3)cs2)nc2ccccc21", "note": "(configuration not stated)", "activation": "inactive: -37.4%"}
{"smiles": "COc1cc(C(=O)Nc2cccc(C)n2)ccc1OCC(=O)N1CCOCC1", "Potency": "inconclusive: 28.2 µM [activator, single point]"}
{"smiles": "Cc1n[nH]c(=S)n(NC(=O)/C=C/C(=O)Nn2c(=S)[nH]nc(C)c2=O)c1=O", "activation": "inactive: 36%"}
{"smiles": "CCCCCCN1C=CC(=C2C(=O)c3ccccc3C2=O)C=C1", "Potency": "inconclusive: 1.58 µM [activator, partial curve, poor fit]"}
{"smiles": "CC(OC(=O)CN1C(=O)c2ccccc2C1=O)C(=O)c1ccccc1", "note": "(configuration not stated)", "Potency": "inconclusive: 3.16 µM [activator, single point]"}
{"smiles": "Cc1ccc(Nc2nc(C)cc(C)c2C(N)=O)c(C)c1", "Potency": "inconclusive: 3.16 µM [activator, single point]"}
{"smiles": "COc1ccc(/C=C/C(=O)NNc2cc(=O)n(C)c(=O)n2C)cc1OC", "Potency": "inconclusive: 12.6 µM [activator, single point]"}
{"smiles": "COc1ccccc1-c1coc2c(CN3C(C)CCCC3C)c(O)ccc2c1=O", "note": "(configuration not stated)", "Potency": "active: 2.24 µM"}
{"smiles": "CCC(C(=O)Nc1ccccc1F)n1nc(C)c2c(C)n(-c3ccccc3)nc2c1=O", "note": "(configuration not stated)", "Potency": "inconclusive: 6.31 µM [activator, partial curve, poor fit]"}
{"smiles": "O=Nc1c(O)n(Cc2cccc(Cl)c2)c2ccccc12", "activation": "inactive: -25%"}
{"smiles": "CCc1ccc(-n2c(Cn3nc(C(F)(F)F)cc3C)n[nH]c2=S)cc1", "activation": "inactive: 19.1%"}
{"smiles": "Cc1ccc(C(C)C)c(OCCN)c1", "Potency": "inconclusive: 5.01 µM [activator, single point]"}
{"smiles": "Cc1cccc(NC(=S)NNC(=O)c2csc3c2CCCC3)c1", "activation": "inactive: -6.7%"}
{"smiles": "CCOc1ccccc1NC(=O)C(=O)CC(=O)c1cccc(OC)c1", "Potency": "inconclusive: 28.2 µM [activator, single point]"}
